Values from PubChem BioAssay AID1259297 (Sanger Institute, 2017)
The deposit covers 794 reagents; this is a random part of them. 13 of them (1.6%) were called active. 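Calls reflect knock-down without drug only; drug synergy is judged separately, with scores above 0.15 counted as synergy.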 Unmarked entries are inactive. No viability above 1 is reported: the scale is capped. Further read-outs or replicates are left out here. No sequences are given here. The record does not give: the amount of reagent, the time to read-out.

Test: 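Kinases whose loss kills cells on their own or with targeted drugs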 (primary screen)
System: human RCM1 colorectal cancer cell line
Reagents: siRNA pool against human genes
Treatment: separate arms: DMSO vehicle, or one anchor drug at a mild dose: BYL719 1 µM, cetuximab 5 µg/ml, trametinib 10 nM
Detection: 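Viability per well relative to a non-targeting pool, mean of replicates; robust z-score for knock-down alone; synergy score with BYL719, cetuximab or trametinib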
Direction: viability z-score, knock-down alone: higher = more viable cells than non-targeting controls; viability, knock-down alone (DMSO): higher = more viable cells
Units: viability, knock-down alone (DMSO) in fraction of control
Call rule: 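Essential when the viability robust z-score for knock-down alone is below -3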
Meaning of the calls: active = essential when knocked down alone; inactive = no clear loss of viability alone

{"target gene": "CAMK1G", "viability z-score, knock-down alone": 0.0928, "viability, knock-down alone (DMSO)": 0.925}
{"target gene": "PIK3R3", "viability z-score, knock-down alone": 0.9, "viability, knock-down alone (DMSO)": 1}
{"target gene": "PANK2", "viability z-score, knock-down alone": 0.9, "viability, knock-down alone (DMSO)": 1}
{"target gene": "FASTK", "viability z-score, knock-down alone": 0.303, "viability, knock-down alone (DMSO)": 0.945}
{"target gene": "PRKACA", "viability z-score, knock-down alone": 0.428, "viability, knock-down alone (DMSO)": 0.956}
{"target gene": "ADCK2", "viability z-score, knock-down alone": -0.0132, "viability, knock-down alone (DMSO)": 0.915}
{"target gene": "CSNK1A1L", "viability z-score, knock-down alone": 0.9, "viability, knock-down alone (DMSO)": 1}
{"target gene": "GK", "viability z-score, knock-down alone": 0.705, "viability, knock-down alone (DMSO)": 0.982}
{"target gene": "CRKL", "viability z-score, knock-down alone": -1.11, "viability, knock-down alone (DMSO)": 0.813}
{"target gene": "MPP3", "viability z-score, knock-down alone": "-4.37 (active)", "viability, knock-down alone (DMSO)": 0.511}
{"target gene": "PIK3R5", "viability z-score, knock-down alone": -0.889, "viability, knock-down alone (DMSO)": 0.834}
{"target gene": "PXK", "viability z-score, knock-down alone": 0.715, "viability, knock-down alone (DMSO)": 0.983}
{"target gene": "ROCK2", "viability z-score, knock-down alone": 0.9, "viability, knock-down alone (DMSO)": 1}
{"target gene": "PSTK", "viability z-score, knock-down alone": -0.501, "viability, knock-down alone (DMSO)": 0.87}
{"target gene": "MAP3K15", "viability z-score, knock-down alone": 0.0689, "viability, knock-down alone (DMSO)": 0.923}
{"target gene": "STK38L", "viability z-score, knock-down alone": -0.877, "viability, knock-down alone (DMSO)": 0.835}
{"target gene": "ZAP70", "viability z-score, knock-down alone": -0.0114, "viability, knock-down alone (DMSO)": 0.915}
{"target gene": "DCLK3", "viability z-score, knock-down alone": -0.233, "viability, knock-down alone (DMSO)": 0.895}
{"target gene": "AAK1", "viability z-score, knock-down alone": -2.1, "viability, knock-down alone (DMSO)": 0.721}
{"target gene": "MYO3A", "viability z-score, knock-down alone": 0.125, "viability, knock-down alone (DMSO)": 0.928}
{"target gene": "TGFBR3", "viability z-score, knock-down alone": -0.278, "viability, knock-down alone (DMSO)": 0.891}
{"target gene": "ETNK2", "viability z-score, knock-down alone": -0.537, "viability, knock-down alone (DMSO)": 0.867}
{"target gene": "FGFR1", "viability z-score, knock-down alone": 0.9, "viability, knock-down alone (DMSO)": 1}
{"target gene": "RIPK4", "viability z-score, knock-down alone": 0.9, "viability, knock-down alone (DMSO)": 1}
{"target gene": "CDKL3", "viability z-score, knock-down alone": 0.134, "viability, knock-down alone (DMSO)": 0.929}
{"target gene": "HSPB8", "viability z-score, knock-down alone": -0.136, "viability, knock-down alone (DMSO)": 0.904}
{"target gene": "KRAS", "viability z-score, knock-down alone": "-3.64 (active)", "viability, knock-down alone (DMSO)": 0.579}
{"target gene": "HIPK2", "viability z-score, knock-down alone": 0.714, "viability, knock-down alone (DMSO)": 0.983}
